These results are taken from US5635477A (The DuPont Merck Pharmaceutical Company, priority 1995, dated 1997).

The nature of this data set: general procedure: Boc solid-phase peptide synthesis; oxime resin (substitution level=0.96 mmol/g); HBTU or TBTU with N-methylmorpholine. Conditions: for isolated yield: overall.
The mark [1] stands for this setting: late stage modification step, TFA salt.
Setting [2] is: late stage modification step, acetate salt.
Where [3] appears, read: whole synthesis, scale 0.283 mmol, TFA salt.
The mark [4] stands for this setting: whole synthesis, scale 0.193 mmol, TFA salt.
[5] abbreviates: whole synthesis, scale 0.101 mmol, TFA salt.
Where [6] appears, read: late stage modification step, fluoride salt.
Where [7] appears, read: whole synthesis, scale 0.586 mmol, TFA salt.
Where [8] appears, read: whole synthesis, scale 0.611 mmol, TFA salt.
[9] abbreviates: whole synthesis, scale 0.43 mmol, TFA salt.
[10] abbreviates: whole synthesis, scale 0.244 mmol, TFA salt.
The mark [11] stands for this setting: whole synthesis, scale 0.266 mmol, TFA salt.
Where [12] appears, read: whole synthesis, scale 0.202 mmol, TFA salt.
Where [13] appears, read: whole synthesis, scale 0.115 mmol, TFA salt.

Strings that start with PEPTIDE1 are HELM notation: dots part the residues, brackets hold end groups and non-standard residues.

“4,4'-Dinitrobenzophenone Oxime Boc-D-Val-NMeArg(Tos)-Gly-ASp(OcHex)-2-aminomethylphenylacetate”: the step yield (coupling step, TFA salt) was determined as 95%.
For “Cyclo[L-aspartyl(pivaloyloxymethyl)-3-(aminomethyl)benzoyl-D-2-aminobutyryl-L-arginyl-glycyl]”, the step yield under setting [1] was 26%.
Turning to “Cyclo[L-aspartyl(t-butyl)-3-(aminomethyl)benzoyl-D-2-aminobutyryl-N^ω, N^ω '-(bisbenzyloxycarbonyl)-L-arginyl-glycyl]”, under “cyclisation step, TFA salt”, the cyclisation yield is 90%.
Take “Cyclo[L-aspartyl-3-(aminomethyl)benzoyl-D-2-aminobutyryl-N^ω, N^ω '-(bisbenzyloxycarbonyl)-L-arginyl-glycyl]”: under setting [1], the step yield came to 97%.
Turning to “PEPTIDE1{F.R.G.D.[Mamb]}$PEPTIDE1,PEPTIDE1,1:R1-5:R2$$$V2.0”, the step yield is, setting by setting: under setting [2], 98%; (purification step, TFA salt) 32%. The isolated yield (whole synthesis, TFA salt) came out at 31.5%. The crude mass (whole synthesis, scale 0.335 mmol, TFA salt) is 306 mg.
On to “PEPTIDE1{G.R.G.D.[Mamb]}$PEPTIDE1,PEPTIDE1,1:R1-5:R2$$$V2.0”, for which the step yield (purification step, TFA salt) was 36%. In addition, the isolated yield (whole synthesis, TFA salt) was determined as 19.9%. Further, under setting [3], the crude mass is recorded as 62 mg and the crude yield is recorded as 58%.
On to “PEPTIDE1{[D-Abu].R.G.D.[Mamb]}$PEPTIDE1,PEPTIDE1,1:R1-5:R2$$$V2.0”, for which the step yield under setting [2] turned out to be 99% and the step yield (purification step, TFA salt) was 57%. Further, the isolated yield (whole synthesis, TFA salt) was determined as 72.2%. Moreover, the crude mass under setting [4] came to 210 mg.
“PEPTIDE1{[D-Abu].[NMeArg].G.D.[4I-Mamb]}$PEPTIDE1,PEPTIDE1,1:R1-5:R2$$$V2.0”: the step yield (purification step, TFA salt) is recorded as 28.7% recovery. Besides, the isolated yield result (whole synthesis, TFA salt) was “overall yield 30.2%”. The crude mass (whole synthesis, protected cyclic peptide, scale 3.53 mmol, TFA salt) amounted to 4070 mg.
Regarding “PEPTIDE1{[D-Abu].[NMeArg].G.D.[Mamb6Cl]}$PEPTIDE1,PEPTIDE1,1:R1-5:R2$$$V2.0”, under setting [1], the step yield was 41%.
Still for that read-out and setting: as for “PEPTIDE1{[D-Abu].[NMeArg].G.D.[Mamb6I]}$PEPTIDE1,PEPTIDE1,1:R1-5:R2$$$V2.0”, the figure is 49%; as for “PEPTIDE1{[D-Abu].[NMeArg].G.D.[Mamb6Me]}$PEPTIDE1,PEPTIDE1,1:R1-5:R2$$$V2.0”, 28%.
Consider “PEPTIDE1{[D-Abu].[NMeArg].G.D.[Mamb]}$PEPTIDE1,PEPTIDE1,1:R1-5:R2$$$V2.0”, for which the step yield (late stage modification step, on protected cyclic peptide, TFA salt) is 68.7%. The step yield (purification step, TFA salt) was 31% recovery. Also, for the setting “whole synthesis, TFA salt”, the isolated yield came out at 12.4%. For the same substance, under setting [5], the crude mass came out at 51 mg and the crude yield was 63%.
As to “PEPTIDE1{[D-Nle].[NMeArg].G.D.[Mamb]}$PEPTIDE1,PEPTIDE1,1:R1-5:R2$$$V2.0”, the step yield was found to be 95.4% under setting [6] and 44% (purification step, TFA salt). Further, for the setting “whole synthesis, TFA salt”, the isolated yield was found to be 22.9%. Under setting [7], the crude mass was 305 mg. In addition, under setting [7], the crude yield was determined as 63.3%.
“PEPTIDE1{[D-Phg].[NMeArg].G.D.[Mamb]}$PEPTIDE1,PEPTIDE1,1:R1-5:R2$$$V2.0”: the step yield under setting [6] came to 98.9%. Also, the step yield (purification step, TFA salt) was 24.2%. In addition, the isolated yield (whole synthesis, TFA salt) worked out at 11.9%. For the same substance, under setting [8], the crude mass is reported as 296 mg and the crude yield was determined as 57.4%.
As to “PEPTIDE1{[NMeGly].[NMeArg].G.D.[Mamb]}$PEPTIDE1,PEPTIDE1,1:R1-5:R2$$$V2.0”, the step yield by setting is: under setting [2], 97%; (purification step, TFA salt) 14.7%. For the same substance, the isolated yield (whole synthesis, TFA salt) came to 7.9%. The crude mass under setting [9] was found to be 205 mg. Also, the crude yield under setting [9] was 60%.
Take “PEPTIDE1{[bAla].[NMeArg].G.D.[Mamb]}$PEPTIDE1,PEPTIDE1,1:R1-5:R2$$$V2.0”: for the setting “purification step, TFA salt”, the step yield was 53.2%. The isolated yield (whole synthesis, TFA salt) worked out at 32.5%. Further, under setting [7], the crude mass came out at 264 mg and the crude yield was found to be 57.5%.
Regarding “PEPTIDE1{[dA].R.G.D.[Mamb]}$PEPTIDE1,PEPTIDE1,1:R1-5:R2$$$V2.0”, the step yield reads like this: under setting [2], 83%; (purification step, TFA salt) 12.5%. In addition, the isolated yield (whole synthesis, TFA salt) was 13.8%. For the same substance, the crude mass (whole synthesis, scale 0.189 mmol, TFA salt) is listed as 211 mg.
In the case of “PEPTIDE1{[dA].[NMeArg].G.D.[Mamb]}$PEPTIDE1,PEPTIDE1,1:R1-5:R2$$$V2.0”, the difficulty met entry (whole synthesis, TFA salt) is “Recoupling of the Boc-N-MeArg(Tos) residue was found to be necessary”. Further, under setting [10], the crude mass turned out to be 117 mg and the crude yield stood at 61%.
Consider “PEPTIDE1{[dF].R.G.D.[Mamb]}$PEPTIDE1,PEPTIDE1,1:R1-5:R2$$$V2.0”, for which the step yield (purification step, TFA salt) is 35%. Moreover, under “whole synthesis, TFA salt”, the isolated yield is reported as 29.3%. For the same substance, under setting [11], the crude mass is given as 202 mg and the crude yield stood at 90%.
Turning to “PEPTIDE1{[dF].[NMeArg].G.D.[Mamb]}$PEPTIDE1,PEPTIDE1,1:R1-5:R2$$$V2.0”, the step yield (purification step, TFA salt) came out at 35%. Further, the isolated yield (whole synthesis, TFA salt) is 8.7%. Under setting [8], the crude mass was 140 mg and the crude yield came to 26.7%.
For the substance “PEPTIDE1{[dK].[NMeArg].G.D.[Mamb]}$PEPTIDE1,PEPTIDE1,1:R1-5:R2$$$V2.0”, the step yield runs as follows: (late stage modification step, difluoride salt) 79.1%; (purification step, TFA salt) 33.6%. For the same substance, where the note is “whole synthesis, TFA salt”, the isolated yield amounted to 12.1%. Further, the crude mass under setting [7] was found to be 349 mg. Moreover, the crude yield under setting [7] was found to be 58.9%.
For the substance “PEPTIDE1{[dL].R.G.D.[Mamb]}$PEPTIDE1,PEPTIDE1,1:R1-5:R2$$$V2.0”, the step yield under setting [2] was 66%. The step yield (purification step, TFA salt) is given as 26%. Where the note is “whole synthesis, TFA salt”, the isolated yield is given as 14.8%. Besides, under setting [12], the crude mass is reported as 152 mg and the crude yield is 93%.
Turning to “PEPTIDE1{[dL].[NMeArg].G.D.[Mamb]}$PEPTIDE1,PEPTIDE1,1:R1-5:R2$$$V2.0”, the step yield under setting [2] is 63% and the step yield (purification step, TFA salt) was determined as 29%. Where the note is “whole synthesis, TFA salt”, the isolated yield is reported as 16.5%. For the same substance, under setting [13], the crude mass amounted to 92.4 mg. For the same substance, the crude yield under setting [13] came out at 98%.
On to “PEPTIDE1{[dP].[NMeArg].G.D.[Mamb]}$PEPTIDE1,PEPTIDE1,1:R1-5:R2$$$V2.0”, for which the step yield is reported as 93.3% under setting [2] and 6.4% (purification step, TFA salt). Moreover, the isolated yield (whole synthesis, TFA salt) was 3.3%. Further, the crude mass under setting [9] is 211 mg. For the same substance, the crude yield under setting [9] is given as 60.8%.
Consider “PEPTIDE1{[dS].R.G.D.[Mamb]}$PEPTIDE1,PEPTIDE1,1:R1-5:R2$$$V2.0”, for which the step yield under setting [2] is given as 89% and the step yield (purification step, TFA salt) is given as 22%. For the same substance, the isolated yield (whole synthesis, TFA salt) was 27%. Besides, the crude mass under setting [4] is on record as 224 mg.
For “PEPTIDE1{[dV].R.G.D.[Mamb]}$PEPTIDE1,PEPTIDE1,1:R1-5:R2$$$V2.0” the same measures were 86%, 57%, 58.1% and 199 mg.
Take “PEPTIDE1{[dV].[NMeArg].G.D.[3Apa]}$PEPTIDE1,PEPTIDE1,1:R1-5:R2$$$V2.0”: the step yield under setting [1] was 50%.
Consider “PEPTIDE1{[dV].[NMeArg].G.D.[4Cl-Mamb]}$PEPTIDE1,PEPTIDE1,1:R1-5:R2$$$V2.0”, for which the step yield under setting [1] worked out at 39%.
